Several values for one entry are separate records, joined by “and”; a condition that tells them apart may be missing. Equal entries are not always repeated.
Experiments:
[1] = system: p-sites in DNA-damaged AsPC-1 cells; assay: decryptM dose-resolved phosphoproteomics of ATRi in GEM-pre-treated cells; type: cell-based, human; details: 1 µM GEM 3 h, then ATRi 1 nM-10 µM 1 h
Description: (§1) Cell culture medium was replaced 24 h after seeding. […] For time point 0, AsPC-1 cells were treated with a vehicle and lysed immediately. The final DMSO concentration in all experiments was 0.2%.
(§2) Briefly, cells were washed twice with PBS and lysed in SDS lysis buffer (2% SDS in 40 mM Tris-HCl, pH 7.6), followed by sonication for 10 min (30 s on/30 s off) using a Bioruptor (Diagenode). For DNA hydrolysis, samples were boiled at 95 °C for 10 min and incubated with 2% trifluoroacetic acid (TFA) for 1 min, before the reaction was quenched using 4% N-methylmorpholine. Lysate was cleared by centrifugation at 11,000 × g for 5 min and protein concentration was determined using the Pierce BCA Protein Assay Kit (Thermo Scientific).
(§3) Using 70% ethanol, samples were then precipitated on beads, followed by washing thrice with 80% ethanol and once with 100% acetonitrile. Subsequently, proteins were reduced and alkylated using 10 mM TCEP, 50 mM chloroacetamide, and 2 mM CaCl2 in 100 mM EPPS/NaOH, pH 8.5 for 1 h at 37 °C, followed by tryptic digestion at 37 °C for 16 h. Peptides were acidified with 1% TFA and desalted on Chromabond HLB plates (30 µm particle size, 10 mg capacity, Machery-Nagel), using 0.1% TFA for equilibration and sample loading, and 0.1% TFA in 70% acetonitrile for peptide elution. Recovered peptides were freeze-dried by vacuum-centrifugation and stored at −20 °C.
Depending on the experiment, samples were either labeled with TMT-11plex (decryptM), TMT-10plex (non-decryptM, quadruplicates), or TMTpro reagent (time-series; all Thermo Scientific). Therefore, dried peptides were reconstituted in 15 µl 100 mM EPPS, pH 8.5 and each treatment condition was labeled with one channel of the respective TMT reagent (5 µl of 25 µg/µl reagent, Appendix Tables S4–S6). The reaction was incubated for 1 h at 23 °C and subsequently quenched with 0.4% hydroxylamine. Then, samples were pooled, acidified with 1% formic acid, and freeze-dried by vacuum-centrifugation. […]

[2] = system: Suit2-07 cells; assay: Cell proliferation assay, GEM + ATR inhibitor (Incucyte confluence, 72 h); type: cell-based, human;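 further: Suit2-07 cells grown in 96-well plates at 37 °C, 5% CO2, raw 72 h confluence taken without normalizing to starting confluence, each experiment done in triplicate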
[3] = system: PANC-1 cells; assay: as above;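 further: PANC-1 confluence at 72 h taken as raw values, not normalized to starting confluence, with each experiment run in triplicate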
[4] = system: p-sites in AsPC-1 cells; assay: Phosphoproteomics 1 µM GEM vs. vehicle (4 h); type: cell-based, human; details: 1 µM GEM vs. untreated
Description: as §1, §2, §3
Depending on the experiment, samples were either labeled with TMT-11plex (decryptM), TMT-10plex (non-decryptM, quadruplicates), or TMTpro reagent (time-series; all Thermo Scientific). Therefore, dried peptides were reconstituted in 15 µl 100 mM EPPS, pH 8.5 and each treatment condition was labeled with one channel of the respective TMT reagent (5 µl of 25 µg/µl reagent, Appendix Tables S4–S6). The reaction was incubated for 1 h at 23 °C and subsequently quenched with 0.4% hydroxylamine. Then, samples were pooled, acidified with 1% formic acid, and freeze-dried by vacuum-centrifugation. Labeled peptide pools were desalted on C18 Sep-Pak cartridges (37–55 µm particle size, 50 mg capacity, Waters), using 0.1% formic acid as equilibration solvent, and 0.1% formic acid in 60% acetonitrile was used as elution solvent. Eluted peptides were freeze-dried and stored at −20 °C until further use.
Basic reversed-phase (bRP) fractionation of peptides was performed on a Vanquish HPLC (Thermo Scientific). In short, dried peptides were reconstituted in 200 µl 25 mM ammonium bicarbonate, pH 8.0 and directly injected onto a Waters BEH130 XBridge C18 column (3.5 µm, 4.6 × 250 mm). […] Using an automated fraction collector, 96 fractions were collected between min 7 and 55 after injection. Fractions were acidified with 1% formic acid and pooled to 48 fractions, before they were freeze-dried and stored at −20 °C. […]

[5] = experiment ATRi (ATR inhibitor alone), slope of fitted dose-response curve
[6] = experiment GEM+ATRi_dose1, slope of fitted dose-response curve
[7] = experiment GEM+ATRi_dose2, slope of fitted dose-response curve
[8] = experiment GEM+ATRi_dose3, slope of fitted dose-response curve

Compound	number of dose-dependently regulated p-sites [1]	Curve slope [2, 5]	Curve slope [2, 6]	Curve slope [2, 7]	Curve slope [2, 8]	Curve slope [3, 5]	Curve slope [3, 6]	Curve slope [3, 7]	Curve slope [3, 8]	Curve slope ([2]; experiment GEM (GEM alone), slope of fitted dose-response curve)	number of down-regulated p-peptides [4]	number of regulated pSQ/pTQ motif sites [4]	number of up-regulated p-peptides [4]	number of statistically significant GEM-regulated p-peptides ([4]; adjusted p < 0.01, log2 FC > 1)
Nc1nn2cc(F)cnc2c1C(=O)Nc1cncc(F)c1N1CCC(C(=O)N2CCN(C3COC3)CC2)CC1 [Gartisertib]	1015	2.18	3.55	8.53	3.33	1.65 and 1.57 and 0.94	3.05 and 3.59 and 1.87	2.88 and 1.50 and 2.63	3.22 and 3.21 and 2.91	–	–	–	–	–
Nc1ccn([C@@H]2O[C@H](CO)[C@@H](O)C2(F)F)c(=O)n1 [GEM, Gemcitabine]	–	–	–	–	–	–	–	–	–	2.44 and 2.30 and 1.96 and 2.05	198	135	216	414
CNCc1ccc(-c2cc(-c3nc(-c4ccc(S(=O)(=O)C(C)C)cc4)cnc3N)on2)cc1 [Berzosertib]	840	2.00	3.50	3.29	2.34	1.03 and 1.14	2.25 and 1.73	3.31 and 2.16	2.04 and 2.65	–	–	–	–	–
C[C@@H]1COCCN1c1cc(C2([S@](C)(=N)=O)CC2)nc(-c2cc[nH]c3nccc2-3)n1 [Ceralasertib]	421	1.85	4.92	3.51	2.88	–	–	–	–	–	–	–	–	–

Source: PMC11876601 (Molecular Systems Biology, 2025)
